One substance from patent publication EP1767214B1 can be followed below.

By UniProt entry, the sequences of proteins in these tests, tags left out.
UniProt O60603: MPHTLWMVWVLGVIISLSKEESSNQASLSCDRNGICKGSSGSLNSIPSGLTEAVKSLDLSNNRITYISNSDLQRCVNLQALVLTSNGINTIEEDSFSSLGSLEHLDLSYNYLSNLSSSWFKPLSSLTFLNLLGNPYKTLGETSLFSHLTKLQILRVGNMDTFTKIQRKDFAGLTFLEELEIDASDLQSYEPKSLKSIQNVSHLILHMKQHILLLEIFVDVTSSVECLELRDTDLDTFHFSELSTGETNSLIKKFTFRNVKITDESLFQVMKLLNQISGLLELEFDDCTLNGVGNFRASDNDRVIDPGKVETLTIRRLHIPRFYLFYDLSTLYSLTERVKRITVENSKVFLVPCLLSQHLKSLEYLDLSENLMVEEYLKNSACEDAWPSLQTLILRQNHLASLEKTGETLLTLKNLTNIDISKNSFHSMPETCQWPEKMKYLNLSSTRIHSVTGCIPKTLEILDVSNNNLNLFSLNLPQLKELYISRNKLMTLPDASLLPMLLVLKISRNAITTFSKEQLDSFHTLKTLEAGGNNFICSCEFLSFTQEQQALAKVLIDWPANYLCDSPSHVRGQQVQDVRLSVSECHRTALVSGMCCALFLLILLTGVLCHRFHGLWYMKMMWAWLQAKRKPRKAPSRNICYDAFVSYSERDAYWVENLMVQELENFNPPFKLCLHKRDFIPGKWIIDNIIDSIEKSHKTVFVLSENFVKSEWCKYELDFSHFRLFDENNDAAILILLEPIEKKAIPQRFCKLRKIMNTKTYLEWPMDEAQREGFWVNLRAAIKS
UniProt P43313: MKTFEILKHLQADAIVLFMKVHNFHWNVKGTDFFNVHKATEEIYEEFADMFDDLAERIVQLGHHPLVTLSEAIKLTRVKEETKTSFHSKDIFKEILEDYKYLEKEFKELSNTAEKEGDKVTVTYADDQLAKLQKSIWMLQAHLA

No constants are given. Whether binding was seen depends on the method and setting. Some entries that bind do so weakly or less than the wild type.

For this test, the target named is human Toll-like Receptor (TLR)-2 (human) (UniProt O60603). Put plainly: summary of the experimental results; the underlying test is the HEK-293 TLR cell line assay of section 1.4.

As for “Neutrophil Activating Protein of Helicobacter pylori (HP-NAP) (from UniProt P43313 1-144)”, the binding result is reported as “binds”.
